Measurements as given in PubChem BioAssay AID504834 (National Center for Advancing Translational Sciences (NCATS), 2011).
The campaign covered roughly 320,000 compounds. About 22,000 (6.9%) were called active. The inconclusive results got no clear call from the source; some entries with a clear call stand among them for comparison. The call rests on the fitted dose curve; in most records, active means well fitted inhibition curve with a large enough effect; inconclusive means small, poorly fitted or top-dose-only effect, or another doubt; inactive means no such curve, though single readings can be large or run the other way. Potencies beside an inconclusive call are fits to weak or partial responses and may not hold up.

assay: Primary qHTS for delayed death inhibitors of the malarial parasite plastid, 96 hour incubation; details: P. falciparum luciferase reporter growth; series mostly up to 28.7 µM; activity change, negative = inhibition: at the top concentration
In short: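 Cell-based qHTS: luciferase-tagged P. falciparum in erythrocytes (2% hematocrit, 0.05% parasitemia final) incubated with compounds for 96 hours, 37 C, 5% CO2; luciferase detection reagent then added and luminescence measured.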
On the % scale 0 is the no-effect control and ±100 the full control effect; potency means the concentration at half of the fitted maximal effect.

Structure (SMILES)	Potency	activity change, negative = inhibition
COCCNC(=O)c1ccccc1NC(=O)c1ccc(Cl)c(S(=O)(=O)Nc2ccc(C)cc2C)c1	inconclusive: 13.1 µM [inhibitor, partial curve, poor fit]	
COc1cc([C@H]2c3[nH]c4ccccc4c3C[C@H]3C(=O)N4[C@@H](c5cc(OC)c(OC)c(OC)c5)c5[nH]c6ccccc6c5C[C@H]4C(=O)N23)cc(OC)c1OC	active: 0.465 µM	
CC(C)NC(=O)c1ccc(CN2CCc3ccccc3C2)cc1	inconclusive: 16.5 µM [inhibitor, single point]	
C/C(=N\NC(=O)c1cccc(N/N=C(\C)c2ccncc2)c1)c1ccncc1	active: 8.28 µM	
CC(NCC(O)c1ccc([N+](=O)[O-])cc1)C12CC3CC(CC(C3)C1)C2 (stereo not given)	inconclusive: 0.0262 µM [inhibitor, full curve]	
Cc1c(OC(=O)c2ccc([N+](=O)[O-])cc2)c2c(c[n+]1C)COC(C)(C)OC2	inconclusive: 18.5 µM [inhibitor, single point]	
COc1ccccc1N1CCN(C(=O)CCNS(=O)(=O)c2cc(Br)cnc2N)CC1	inconclusive: 13.1 µM [inhibitor, single point]	
O=S(=O)(Nc1ccc(Cl)cc1)c1ccc(N2CCOCC2)c(NC(=S)NC2CC2)c1	inconclusive: 6.57 µM [inhibitor, partial curve, poor fit]	
Cc1cc(C)n2nc(C(=O)Nc3c(C)nn(Cc4ccc(F)cc4)c3C)cc2n1	inconclusive: 18.5 µM [inhibitor, single point]	
O=C(c1cc2ccccc2cc1O)N1CCN(c2cccc(Cl)c2)CC1	active: 11.7 µM	
Cc1cc(C)c2[nH]c(=S)cc(C)c2c1	inconclusive: 11.7 µM [inhibitor, single point]	
CCCCN1C(=O)C(=O)N(CC(=O)Nc2cc(Cl)ccc2OC)C1=O	inconclusive: 14.7 µM [inhibitor, partial curve, poor fit]	
CCC(=O)N1CCc2cc(S(=O)(=O)CCC(=O)N(C)c3ccc(OC)cc3)ccc21		inactive: 27.8%
CN(c1ccc(C(=O)O)cc1)S(=O)(=O)c1ccc(Cl)cc1		inactive: 16.2%
CCCNC(=O)COc1coc(CN2CCN(c3ccccc3OC)CC2)cc1=O	inconclusive: 13.1 µM [inhibitor, single point]	
CC1CCC(NC(=O)Cn2ncc3ccccc32)CC1 (stereo not given)		inactive: 17.3%
O=C(O)CCS(=O)(=O)c1cccc2cccnc12		inactive: 7.03%
COc1ccc(NC(=O)CCNC(=O)c2ccco2)c(OC)c1		inactive: 58.4%
CCN(Cc1ccccc1)C(=O)Cn1c(C(C)O)nc2ccccc21 (stereo not given)	inconclusive: 18.5 µM [inhibitor, single point]	
Clc1cccc(Cl)c1COn1nnc2ccccc21	inconclusive: 18.5 µM [inhibitor, single point]	
CCN(CC(=O)Nc1c(F)cccc1F)C(=O)CCCNC(=O)c1ccc(Cl)cc1	inconclusive: 11.7 µM [inhibitor, single point]	
O=C(c1ccc2c(=O)n3c(nc2c1)CCCCC3)N1CCN(C(c2ccccc2)c2ccccc2)CC1	active: 1.85 µM	
O=C(NCc1ccc(F)cc1)C1CCN(S(=O)(=O)c2ccc3c(c2)OCCCO3)CC1	inconclusive: 9.28 µM [inhibitor, partial curve]	
Cc1ccc(C(C)C)c(OCC(=O)Nc2ccc(N3CCOCC3)cc2N2CCOCC2)c1	inconclusive: 5.86 µM [inhibitor, partial curve, poor fit]	

Some values from the list:
Value of COCCNC(=O)c1ccccc1NC(=O)c1ccc(Cl)c(S(=O)(=O)Nc2ccc(C)cc2C)c1 under Potency: inconclusive: 13.1 µM [inhibitor, partial curve, poor fit]
Value of CCCCN1C(=O)C(=O)N(CC(=O)Nc2cc(Cl)ccc2OC)C1=O under Potency: inconclusive: 14.7 µM [inhibitor, partial curve, poor fit]

(further entries)

Structure (SMILES)	Potency	activity change, negative = inhibition
C[C@@H](CNC1CCCCC1)OC(=O)c1ccccc1	active: 2.56 µM	
CC(=O)N1CCN(C(=O)c2ccc(-c3cccc(C(F)(F)F)c3)o2)CC1	inconclusive: 4.65 µM [inhibitor, partial curve, poor fit]	
NC(=O)C1CCN(c2nc(-c3ccc4c(c3)OCO4)cs2)CC1	inconclusive: 14.7 µM [activator, single point]	
CCOC(=O)Cc1cnc(NC(=O)CSc2nc(N)cc(N)n2)s1		inactive: 6.47%
O=C(CCNC(=O)C1CCN(S(=O)(=O)c2ccc(F)cc2)CC1)NCc1ccncc1		inactive: 6.87%
CC(NC(=O)Nc1ncccn1)(C(F)(F)F)C(F)(F)F	inconclusive: 0.0828 µM [inhibitor, full curve, poor fit]	
CC(=O)N1CCc2cc(S(=O)(=O)CCC(=O)N3CCN(c4cc(C)ccc4C)CC3)ccc21		inactive: -1.49%
CSc1ccc(CN(C)C(=O)C2CCN(C(=O)Nc3ccccc3)CC2)cc1		inactive: 7.26%
Cc1ccc([N+](=O)[O-])cc1NC(=S)NC(=O)c1ccco1		inactive: 13%
O=C(c1cc2ccccc2cc1O)N1CCCC(C(F)(F)F)C1 (stereo not given)	inconclusive: 18.5 µM [inhibitor, partial curve, poor fit]	
CCCN(S(=O)(=O)c1ccc(OCC)cc1)S(=O)(=O)c1cccs1	inconclusive: 18.5 µM [inhibitor, single point]	
O=C(C[n+]1cc(Br)cc(Br)c1)c1ccc(-c2ccccc2)cc1	inconclusive: 14.7 µM [inhibitor, partial curve, poor fit]	
Cc1cc(C2=NNC(=NCCc3ccccc3)SC2)c(C)n1CC1CCCO1 (stereo not given)	inconclusive: 4.15 µM [inhibitor, partial curve]	
O=S(=O)(c1ccccc1)N1CCC2(CC1)OCCN2S(=O)(=O)c1cccs1	inconclusive: 18.5 µM [inhibitor, single point]	
COc1cccc(-c2nc(CS(=O)(=O)CC(=O)NCCCc3ccccc3)c(C)o2)c1	inconclusive: 18.5 µM [inhibitor, single point]	
COc1cccc(CN(C)C(=O)/C=C/c2ccc(S(=O)(=O)N3CCCCCC3)cc2)c1	active: 11.7 µM	
CCCOC(=O)C1=C(C)NC2=C(C(=O)CCC2)C1c1cccs1 (stereo not given)	inconclusive: 18.5 µM [inhibitor, single point]	
COc1ccccc1C(=O)NC(=S)Nc1ccc(Cc2ccncc2)cc1		inactive: 2.62%
Cc1ccc(NC(=O)c2ccccc2SCC(=O)N2CCCC2)cc1S(=O)(=O)N(C)C	active: 6.57 µM	
CC(C)C(NC(=O)c1ccccc1)C(=O)NCCc1ccccc1 (stereo not given)	inconclusive: 0.0657 µM [inhibitor, full curve, poor fit]	
Cc1nc(SCC(=O)c2ccc(F)cc2)n[nH]1		inactive: 61.3%
O=C(CCCCCCCCN1C(=O)c2ccccc2C1=O)N1CCOCC1	inconclusive: 11.7 µM [inhibitor, single point]	
CC(C)N1CCNCC1		inactive: 43.3%
C=CC[N+]1(CC#Cc2ccccc2)CCCC1		inactive: 20.5%

Structure (SMILES)	Potency	activity change, negative = inhibition
Cn1c(C(=O)N2CCCC(C(=O)c3ccc(C(F)(F)F)cc3)C2)cc(=O)n(C)c1=O (stereo not given)	inconclusive: 2.62 µM [inhibitor, full curve, poor fit]	
O=C(N/N=C/c1cccc([N+](=O)[O-])c1)c1ccc2nc[nH]c2c1		inactive: -17.3%
CCOC(=O)c1sc(NC(=O)CSc2nc3c(c(=O)n2-c2ccc(F)cc2)SCC3)c(C(=O)OCC)c1C	active: 2.94 µM	
CCc1ccc2c(CC(=O)Nc3cccc(S(=O)(=O)N4CCOCC4)c3)coc2c1		inactive: -77.3%
Fc1cccc(NC(=S)N2CCCC2)c1	inconclusive: 0.828 µM [inhibitor, full curve, poor fit]	
Cc1c(OCc2ccccc2)cccc1OCc1ccccc1		inactive: 16.3%
CCCCN(C(=O)CSc1nnc(-c2ccc(OC)cc2)n1CC)c1c(N)n(Cc2ccccc2)c(=O)[nH]c1=O	inconclusive: 18.5 µM [inhibitor, single point]	
CCOC(=O)C1CCN(Cc2ccc(OC)c(OCc3ccccc3)c2)CC1	active: 11.7 µM	
Cn1cc(SCC(=O)Nc2nc3ccccc3s2)c2ccccc21		inactive: 23.2%
COC(=O)COc1ccc(C2NC(=O)NC(C)=C2C(=O)NCc2ccccc2)cc1OC (stereo not given)	inconclusive: 18.5 µM [inhibitor, single point]	
Cc1ccc(Cn2c(N/N=C/c3ccncc3)nc3c2c(=O)n(C)c(=O)n3C)cc1	active: 3.7 µM	
COc1ccccc1CNC(=O)c1ccc(CNc2c(N3CCCC3)c(=O)c2=O)cc1	active: 4.65 µM	
C/C(=N\Nc1cccc(Cl)c1)c1ccc(-n2ccnc2)cc1	active: 11.7 µM	
O=C(NC1CCCN(Cc2ccc(Cl)cc2)C1)c1ccccc1-c1ncc[nH]1 (stereo not given)	inconclusive: 10.4 µM [inhibitor, partial curve]	
NC(=O)C1CCN(C(=O)/C=C/c2cc(Br)ccc2F)CC1	inconclusive: 18.5 µM [inhibitor, partial curve, poor fit]	
CC(C)c1nc2cc(C(=O)NC(C)c3cnn(C)c3)ccc2o1 (stereo not given)		inactive: -15.1%
COc1ccc(C2C(C(=O)N3CCCCC3)c3ccccc3C(=O)N2C)cc1 (stereo not given)	inconclusive: 10.4 µM [inhibitor, partial curve, poor fit]	
CC1=NCCN1S(=O)(=O)c1ccc(Br)c(C)c1	inconclusive: 0.104 µM [inhibitor, full curve]	
CC(c1ccc(F)cc1)n1c(-c2ccc3ccccc3n2)n[nH]c1=S (stereo not given)	inconclusive: 13.1 µM [inhibitor, partial curve, poor fit]	
COc1ccc(OC)c(CC(NC(C)=O)C(=O)NC2CCN(S(=O)(=O)c3ccc(NC(C)=O)cc3)CC2)c1 (stereo not given)		inactive: -6.72%
COc1cccc(N(C(C)=O)C2=NCCCS2)c1	inconclusive: 14.7 µM [inhibitor, single point]	
COc1cc(OC)cc(C(=O)Nc2nnc(SCC(=O)NCC3CCCO3)s2)c1 (stereo not given)	inconclusive: 9.28 µM [inhibitor, partial curve]	

2 compounds drawn at random from those above:
Structure (SMILES)	Potency	activity change, negative = inhibition
CCOC(=O)c1sc(NC(=O)CSc2nc3c(c(=O)n2-c2ccc(F)cc2)SCC3)c(C(=O)OCC)c1C	active: 2.94 µM	
CCN(CC(=O)Nc1c(F)cccc1F)C(=O)CCCNC(=O)c1ccc(Cl)cc1	inconclusive: 11.7 µM [inhibitor, single point]	
